From paper PMC5871780, “Klf4 glutamylation is required for cell reprogramming and early embryonic development in mice”
Results are given in words; binding and its absence hold for the method and conditions named. Binding seen in cells or lysates may run through a third protein. Some results given as binding are weak or reduced against the parent protein; the word gives no strength.

Sequences of proteins named here, by UniProt entry; tags and fusion partners are left off.
UniProt Q60793: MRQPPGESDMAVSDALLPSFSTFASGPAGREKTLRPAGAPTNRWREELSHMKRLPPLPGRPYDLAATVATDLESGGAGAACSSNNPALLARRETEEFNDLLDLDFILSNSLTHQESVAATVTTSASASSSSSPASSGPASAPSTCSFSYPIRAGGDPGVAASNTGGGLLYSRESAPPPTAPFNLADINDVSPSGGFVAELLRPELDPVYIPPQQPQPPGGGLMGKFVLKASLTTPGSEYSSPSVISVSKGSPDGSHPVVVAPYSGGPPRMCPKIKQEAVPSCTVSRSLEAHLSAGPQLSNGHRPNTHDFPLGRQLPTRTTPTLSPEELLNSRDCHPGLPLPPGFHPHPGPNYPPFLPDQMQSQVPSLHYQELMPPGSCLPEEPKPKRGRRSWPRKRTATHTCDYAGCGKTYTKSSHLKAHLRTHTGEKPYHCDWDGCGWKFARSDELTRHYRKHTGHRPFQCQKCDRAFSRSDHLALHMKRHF
UniProt Q9Y297: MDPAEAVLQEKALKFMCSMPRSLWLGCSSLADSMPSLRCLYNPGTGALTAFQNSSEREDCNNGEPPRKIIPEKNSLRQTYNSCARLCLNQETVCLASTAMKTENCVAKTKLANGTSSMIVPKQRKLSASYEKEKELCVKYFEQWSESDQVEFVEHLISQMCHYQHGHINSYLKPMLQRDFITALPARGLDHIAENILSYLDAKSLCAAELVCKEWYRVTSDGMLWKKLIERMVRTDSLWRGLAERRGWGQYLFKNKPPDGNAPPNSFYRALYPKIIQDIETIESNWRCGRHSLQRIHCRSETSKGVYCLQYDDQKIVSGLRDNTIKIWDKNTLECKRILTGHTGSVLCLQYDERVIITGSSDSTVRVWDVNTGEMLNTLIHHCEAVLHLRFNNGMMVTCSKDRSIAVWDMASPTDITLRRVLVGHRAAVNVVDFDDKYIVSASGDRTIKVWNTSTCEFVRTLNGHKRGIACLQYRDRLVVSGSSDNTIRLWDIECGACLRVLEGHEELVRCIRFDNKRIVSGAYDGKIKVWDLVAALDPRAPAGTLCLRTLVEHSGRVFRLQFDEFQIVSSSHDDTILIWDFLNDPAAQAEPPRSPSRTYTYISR

Target: rGST-Klf4 (recombinant GST-tagged mouse wild-type Klf4) (mouse) (UniProt Q60793)
Test: pull-down; rGST-Klf4, with or without pre-incubation with lysates from 293T cells transfected with Flag-TTLL4 at 37 °C for 2 h, GST pulldown with Flag-βTrCP1, immunoblotting

Substance: Flag-βTrCP1 (from UniProt Q9Y297 1-605)
- binding: binds
